Assay results from the supplement of paper PMC12823440, “Inhibitors supercharge kinase turnover through native proteolytic circuits” (Nature, 2025).
Structures can show the parent of a compound that is named as a salt. The list shows a part of the results. The calls rarely recur for the same compound in another form.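 In K562 cells expressing nanoluciferase-fused kinases, luminescence was recorded at 4 h intervals between 2 and 18 h, normalized as percent of control with DMSO at 100% and a positive control at 0%. A significant (2 sigma) signal drop marks a time point as decreased. The authors' rule for a hit is not shown and takes in more than the number of time points.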

The chains behind the UniProt entries cited, without tags or fusion partners. Where a name states a change or a piece, a line headed by the entry shows the natural chain unless it says otherwise.
UniProt Q06187: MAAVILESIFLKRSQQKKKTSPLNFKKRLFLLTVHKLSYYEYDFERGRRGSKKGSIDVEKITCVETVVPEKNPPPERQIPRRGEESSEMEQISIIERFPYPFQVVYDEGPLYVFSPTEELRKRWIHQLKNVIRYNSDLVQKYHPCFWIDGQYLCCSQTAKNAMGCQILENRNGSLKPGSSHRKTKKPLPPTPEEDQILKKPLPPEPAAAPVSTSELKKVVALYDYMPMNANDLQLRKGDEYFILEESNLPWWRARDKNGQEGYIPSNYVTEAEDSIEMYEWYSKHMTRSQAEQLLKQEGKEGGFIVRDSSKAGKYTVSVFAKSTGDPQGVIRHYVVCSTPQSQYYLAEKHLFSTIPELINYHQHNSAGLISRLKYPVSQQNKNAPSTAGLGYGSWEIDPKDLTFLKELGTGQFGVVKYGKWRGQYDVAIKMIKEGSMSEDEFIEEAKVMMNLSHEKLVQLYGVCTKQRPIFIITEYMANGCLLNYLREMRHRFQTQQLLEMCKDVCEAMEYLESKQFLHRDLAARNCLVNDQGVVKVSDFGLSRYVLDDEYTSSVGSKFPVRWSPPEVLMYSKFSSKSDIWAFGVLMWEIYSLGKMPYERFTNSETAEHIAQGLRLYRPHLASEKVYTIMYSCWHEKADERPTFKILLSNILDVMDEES
UniProt Q9UQM7, whole entry: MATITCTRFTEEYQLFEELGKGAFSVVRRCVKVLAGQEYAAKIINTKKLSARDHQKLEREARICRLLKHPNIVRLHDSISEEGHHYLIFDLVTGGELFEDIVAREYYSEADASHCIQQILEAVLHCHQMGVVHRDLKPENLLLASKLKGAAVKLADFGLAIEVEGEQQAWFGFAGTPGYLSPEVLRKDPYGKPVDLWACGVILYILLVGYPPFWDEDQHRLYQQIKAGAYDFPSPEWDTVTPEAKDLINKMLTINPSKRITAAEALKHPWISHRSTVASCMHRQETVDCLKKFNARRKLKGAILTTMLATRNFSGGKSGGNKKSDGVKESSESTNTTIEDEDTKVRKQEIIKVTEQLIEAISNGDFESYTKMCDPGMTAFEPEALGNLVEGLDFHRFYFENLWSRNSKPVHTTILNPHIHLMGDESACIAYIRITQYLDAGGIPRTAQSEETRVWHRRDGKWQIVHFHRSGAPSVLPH
UniProt Q13555: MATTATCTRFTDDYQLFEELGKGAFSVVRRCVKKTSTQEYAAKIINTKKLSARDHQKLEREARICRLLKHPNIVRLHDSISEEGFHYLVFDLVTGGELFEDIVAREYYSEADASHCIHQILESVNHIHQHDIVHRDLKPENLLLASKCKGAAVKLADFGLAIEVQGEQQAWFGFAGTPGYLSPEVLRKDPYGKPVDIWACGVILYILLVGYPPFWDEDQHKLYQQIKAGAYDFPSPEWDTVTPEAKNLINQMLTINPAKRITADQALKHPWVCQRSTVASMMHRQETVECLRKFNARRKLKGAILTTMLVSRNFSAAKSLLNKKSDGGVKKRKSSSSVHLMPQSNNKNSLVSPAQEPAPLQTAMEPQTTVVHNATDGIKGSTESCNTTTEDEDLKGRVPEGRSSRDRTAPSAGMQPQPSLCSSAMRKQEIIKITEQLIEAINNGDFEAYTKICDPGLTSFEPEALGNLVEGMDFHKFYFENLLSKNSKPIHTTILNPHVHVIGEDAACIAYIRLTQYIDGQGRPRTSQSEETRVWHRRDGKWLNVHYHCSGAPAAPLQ
UniProt Q00526: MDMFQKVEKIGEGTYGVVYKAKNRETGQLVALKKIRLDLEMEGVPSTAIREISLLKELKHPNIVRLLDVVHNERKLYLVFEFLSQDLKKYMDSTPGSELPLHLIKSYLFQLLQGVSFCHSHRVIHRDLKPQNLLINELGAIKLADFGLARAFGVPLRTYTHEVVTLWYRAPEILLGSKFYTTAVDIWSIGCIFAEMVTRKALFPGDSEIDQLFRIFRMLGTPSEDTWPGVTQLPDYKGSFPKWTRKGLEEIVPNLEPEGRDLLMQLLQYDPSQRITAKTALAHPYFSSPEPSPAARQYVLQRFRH
UniProt P11802: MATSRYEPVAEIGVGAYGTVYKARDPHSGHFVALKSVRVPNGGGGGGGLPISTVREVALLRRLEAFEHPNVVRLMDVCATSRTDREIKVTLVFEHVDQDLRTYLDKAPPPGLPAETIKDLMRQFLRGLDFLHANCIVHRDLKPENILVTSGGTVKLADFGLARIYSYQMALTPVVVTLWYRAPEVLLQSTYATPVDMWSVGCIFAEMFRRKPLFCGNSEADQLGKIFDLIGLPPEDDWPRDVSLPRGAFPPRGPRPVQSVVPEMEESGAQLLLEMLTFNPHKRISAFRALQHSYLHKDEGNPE
UniProt Q00535, whole entry, looked up: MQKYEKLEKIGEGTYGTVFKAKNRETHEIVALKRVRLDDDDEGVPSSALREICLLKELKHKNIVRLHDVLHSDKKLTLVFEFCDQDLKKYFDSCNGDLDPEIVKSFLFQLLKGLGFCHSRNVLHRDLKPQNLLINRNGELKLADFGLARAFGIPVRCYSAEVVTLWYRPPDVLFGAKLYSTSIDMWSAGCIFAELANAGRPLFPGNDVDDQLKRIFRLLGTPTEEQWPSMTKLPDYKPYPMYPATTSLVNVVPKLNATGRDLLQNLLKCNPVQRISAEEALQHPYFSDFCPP
UniProt Q00534, whole entry: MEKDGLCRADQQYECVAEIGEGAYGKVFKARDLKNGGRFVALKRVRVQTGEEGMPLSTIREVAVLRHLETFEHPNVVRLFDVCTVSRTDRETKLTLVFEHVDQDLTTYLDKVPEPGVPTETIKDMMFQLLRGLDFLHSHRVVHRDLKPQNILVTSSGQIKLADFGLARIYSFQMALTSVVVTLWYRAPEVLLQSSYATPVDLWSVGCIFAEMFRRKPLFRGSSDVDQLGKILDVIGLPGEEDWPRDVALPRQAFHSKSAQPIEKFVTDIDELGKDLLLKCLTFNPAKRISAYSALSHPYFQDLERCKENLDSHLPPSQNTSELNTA
UniProt P50613: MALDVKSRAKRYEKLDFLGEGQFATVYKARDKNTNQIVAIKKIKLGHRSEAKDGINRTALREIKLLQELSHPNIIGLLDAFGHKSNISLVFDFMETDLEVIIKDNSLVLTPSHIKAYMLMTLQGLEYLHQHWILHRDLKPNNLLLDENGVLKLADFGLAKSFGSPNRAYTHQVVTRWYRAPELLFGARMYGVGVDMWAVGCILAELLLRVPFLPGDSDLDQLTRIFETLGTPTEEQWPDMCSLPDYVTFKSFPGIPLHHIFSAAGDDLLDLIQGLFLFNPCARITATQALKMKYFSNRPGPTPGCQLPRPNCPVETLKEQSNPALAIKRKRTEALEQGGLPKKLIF
UniProt P50750, whole entry: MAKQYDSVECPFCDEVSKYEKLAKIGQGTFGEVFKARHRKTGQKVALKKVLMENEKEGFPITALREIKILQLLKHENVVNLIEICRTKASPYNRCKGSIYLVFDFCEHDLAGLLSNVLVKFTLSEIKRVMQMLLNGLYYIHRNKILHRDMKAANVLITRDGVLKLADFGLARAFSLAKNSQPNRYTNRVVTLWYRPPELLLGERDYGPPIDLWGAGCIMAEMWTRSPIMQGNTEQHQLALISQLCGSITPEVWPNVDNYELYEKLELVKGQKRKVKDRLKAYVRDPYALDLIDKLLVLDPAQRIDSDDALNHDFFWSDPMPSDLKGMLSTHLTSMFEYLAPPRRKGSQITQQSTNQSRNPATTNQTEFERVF
UniProt O96017, whole entry: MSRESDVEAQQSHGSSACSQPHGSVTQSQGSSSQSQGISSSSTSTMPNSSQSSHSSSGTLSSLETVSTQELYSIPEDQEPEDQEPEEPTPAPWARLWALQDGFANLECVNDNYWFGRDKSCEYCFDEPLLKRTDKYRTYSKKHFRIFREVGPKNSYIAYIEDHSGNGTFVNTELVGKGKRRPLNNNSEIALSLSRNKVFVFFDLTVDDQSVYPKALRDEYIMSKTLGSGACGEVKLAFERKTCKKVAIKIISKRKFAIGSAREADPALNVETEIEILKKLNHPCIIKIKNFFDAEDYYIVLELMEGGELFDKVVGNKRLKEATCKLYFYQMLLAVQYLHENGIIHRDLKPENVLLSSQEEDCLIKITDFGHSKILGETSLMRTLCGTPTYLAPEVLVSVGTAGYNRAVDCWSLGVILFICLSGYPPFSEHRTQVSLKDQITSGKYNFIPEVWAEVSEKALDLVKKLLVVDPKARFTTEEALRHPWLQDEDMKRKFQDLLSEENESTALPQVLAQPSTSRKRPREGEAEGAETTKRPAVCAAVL
UniProt P07333, whole entry: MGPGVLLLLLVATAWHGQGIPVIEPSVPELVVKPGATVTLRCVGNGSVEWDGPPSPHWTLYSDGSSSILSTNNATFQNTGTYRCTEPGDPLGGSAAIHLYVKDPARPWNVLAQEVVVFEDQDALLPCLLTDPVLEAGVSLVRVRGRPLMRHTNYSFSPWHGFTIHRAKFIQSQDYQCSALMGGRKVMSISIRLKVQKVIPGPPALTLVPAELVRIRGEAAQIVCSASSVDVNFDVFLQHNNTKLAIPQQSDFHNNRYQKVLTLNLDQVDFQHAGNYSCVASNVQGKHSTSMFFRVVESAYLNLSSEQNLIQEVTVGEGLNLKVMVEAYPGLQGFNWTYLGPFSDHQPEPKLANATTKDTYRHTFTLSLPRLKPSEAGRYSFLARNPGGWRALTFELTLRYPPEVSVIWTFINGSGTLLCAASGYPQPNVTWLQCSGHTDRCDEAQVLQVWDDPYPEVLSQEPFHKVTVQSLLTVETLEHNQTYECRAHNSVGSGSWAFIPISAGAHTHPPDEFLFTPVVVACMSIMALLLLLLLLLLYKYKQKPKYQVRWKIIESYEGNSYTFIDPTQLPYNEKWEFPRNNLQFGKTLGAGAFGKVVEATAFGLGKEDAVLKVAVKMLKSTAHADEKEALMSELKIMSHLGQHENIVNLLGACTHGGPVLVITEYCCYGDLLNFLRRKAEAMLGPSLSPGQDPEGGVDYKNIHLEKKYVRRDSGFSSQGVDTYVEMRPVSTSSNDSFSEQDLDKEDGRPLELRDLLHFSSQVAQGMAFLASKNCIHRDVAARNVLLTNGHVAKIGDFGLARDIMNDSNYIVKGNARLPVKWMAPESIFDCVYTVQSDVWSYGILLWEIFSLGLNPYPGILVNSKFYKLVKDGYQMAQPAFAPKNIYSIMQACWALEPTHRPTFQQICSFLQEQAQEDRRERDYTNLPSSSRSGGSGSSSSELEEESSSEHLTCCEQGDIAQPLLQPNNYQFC
UniProt P41240: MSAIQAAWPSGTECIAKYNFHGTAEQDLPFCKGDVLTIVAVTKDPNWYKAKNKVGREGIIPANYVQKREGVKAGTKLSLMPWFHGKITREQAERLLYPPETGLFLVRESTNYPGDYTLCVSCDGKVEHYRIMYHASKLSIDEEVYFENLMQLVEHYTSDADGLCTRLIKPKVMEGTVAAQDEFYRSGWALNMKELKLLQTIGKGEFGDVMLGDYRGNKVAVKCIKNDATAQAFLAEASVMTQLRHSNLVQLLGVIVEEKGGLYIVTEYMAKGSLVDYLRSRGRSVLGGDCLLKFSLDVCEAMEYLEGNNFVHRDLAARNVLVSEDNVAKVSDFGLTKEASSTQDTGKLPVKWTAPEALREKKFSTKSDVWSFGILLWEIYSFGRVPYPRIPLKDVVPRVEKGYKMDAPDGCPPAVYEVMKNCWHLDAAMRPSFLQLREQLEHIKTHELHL
UniProt P48729: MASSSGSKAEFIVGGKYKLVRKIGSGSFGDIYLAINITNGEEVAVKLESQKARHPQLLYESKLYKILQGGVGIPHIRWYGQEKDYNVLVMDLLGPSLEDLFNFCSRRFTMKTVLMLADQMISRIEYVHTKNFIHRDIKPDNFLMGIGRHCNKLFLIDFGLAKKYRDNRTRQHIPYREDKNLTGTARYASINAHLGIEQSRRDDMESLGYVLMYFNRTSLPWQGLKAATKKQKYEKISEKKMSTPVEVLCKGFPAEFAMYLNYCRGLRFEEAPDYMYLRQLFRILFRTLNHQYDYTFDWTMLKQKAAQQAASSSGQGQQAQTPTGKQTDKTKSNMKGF
UniProt Q92630: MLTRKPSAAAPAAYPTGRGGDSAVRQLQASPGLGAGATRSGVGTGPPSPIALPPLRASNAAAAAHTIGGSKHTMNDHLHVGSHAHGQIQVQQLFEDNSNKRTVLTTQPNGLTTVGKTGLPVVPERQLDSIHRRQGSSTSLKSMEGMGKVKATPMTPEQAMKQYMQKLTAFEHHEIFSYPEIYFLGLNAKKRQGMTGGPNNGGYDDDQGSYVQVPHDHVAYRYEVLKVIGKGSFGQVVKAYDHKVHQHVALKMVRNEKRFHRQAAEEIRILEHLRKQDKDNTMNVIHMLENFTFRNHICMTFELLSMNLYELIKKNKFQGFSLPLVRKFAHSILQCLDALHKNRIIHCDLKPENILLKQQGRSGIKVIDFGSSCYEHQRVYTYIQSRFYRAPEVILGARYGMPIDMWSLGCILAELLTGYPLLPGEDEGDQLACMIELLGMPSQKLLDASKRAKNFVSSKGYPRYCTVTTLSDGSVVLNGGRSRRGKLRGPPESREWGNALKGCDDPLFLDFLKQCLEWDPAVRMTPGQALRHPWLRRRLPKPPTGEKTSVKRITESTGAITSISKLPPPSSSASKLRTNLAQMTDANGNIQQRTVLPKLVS

Legend:
Assay in all cases: kinase-Nluc reporter destabilization hit call (1 = scored as downregulated) (binary); higher = compound decreases kinase abundance
Conditions in all cases: K562; 2-18 h
BRAF_V600E = test system: BRAF_V600E
BTK = BTK (UniProt Q06187)
CAMK2A = CAMK2A (UniProt Q9UQM7)
CAMK2G = CAMK2G (UniProt Q13555)
CDK10 = CDK10 (UniProt Q15131)
CDK2 = CDK2 (UniProt P24941)
CDK3 = CDK3 (UniProt Q00526)
CDK4 = CDK4 (UniProt P11802)
CDK5 = CDK5 (UniProt Q00535)
CDK6 = CDK6 (UniProt Q00534)
CDK7 = CDK7 (UniProt P50613)
CDK9 = CDK9 (UniProt P50750)
CHEK2 = CHEK2 (UniProt O96017)
CSF1R = CSF1R (UniProt P07333)
CSK = CSK (UniProt P41240)
CSNK1A1 = CSNK1A1 (UniProt P48729)
CSNK1D = CSNK1D (UniProt P48730)
DDR1 = DDR1 (UniProt Q08345)
DYRK1B = DYRK1B (UniProt Q9Y463)
DYRK2 = DYRK2 (UniProt Q92630)

Measured: kinase-Nluc reporter destabilization hit call

N#Cc1cccc(-c2c[nH]c3ncnc(N4CCOCC4)c23)c1 (10 µM)
inactive: BRAF_V600E 0 | BTK 0 | CAMK2A 0 | CAMK2G 0 | CDK10 = 0 | CDK2 = 0 | CDK3 = 0 | CDK4 = 0 | CDK5 = 0 | CDK6 = 0 | CDK7 = 0 | CDK9 = 0 | CHEK2 = 0 | CSF1R 0 | CSK 0 | CSNK1A1 = 0 | CSNK1D 0 | DDR1 = 0 | DYRK1B 0 | DYRK2 = 0

CCc1cc(O)c(F)cc1-c1ccc2c(-c3nc4c([nH]3)CN(C3CCN(C)CC3)CC4)n[nH]c2c1 [JAK-IN-5 (hydrochloride)] (2 µM)
inactive: BRAF_V600E 0 | BTK 0 | CAMK2A 0 | CAMK2G 0 | CDK10 = 0 | CDK2 = 0 | CDK3 = 0 | CDK4 = 0 | CDK5 = 0 | CDK6 = 0 | CDK7 = 0 | CDK9 = 0 | CHEK2 = 0 | CSF1R 0 | CSK 0 | CSNK1A1 = 0 | CSNK1D 0 | DDR1 = 0 | DYRK1B 0 | DYRK2 = 0

Nc1ncnc2c1c(-c1ccc(Oc3ccccc3)cc1)nn2C1CCCNC1 (racemic) (2.5 µM)
inactive: BRAF_V600E 0 | BTK 0 | CAMK2A 0 | CAMK2G 0 | CDK10 = 0 | CDK2 = 0 | CDK3 = 0 | CDK4 = 0 | CDK5 = 0 | CDK6 = 0 | CDK7 = 0 | CDK9 = 0 | CHEK2 = 0 | CSF1R 0 | CSK 0 | CSNK1A1 = 0 | CSNK1D 0 | DDR1 = 0 | DYRK1B 0 | DYRK2 = 0

CC(C)=CC(=O)CCC(=O)N1CCN(Cc2cc3nc(-c4cccc5[nH]ncc45)nc(N4CCOCC4)c3s2)CC1 (10 µM)
active: CDK6 = 1 | CDK9 = 1 | CSNK1A1 = 1
inactive: BRAF_V600E 0 | BTK 0 | CAMK2A 0 | CAMK2G 0 | CDK10 = 0 | CDK2 = 0 | CDK3 = 0 | CDK4 = 0 | CDK5 = 0 | CDK7 = 0 | CHEK2 = 0 | CSF1R 0 | CSK 0 | CSNK1D 0 | DDR1 = 0 | DYRK1B 0 | DYRK2 = 0

COc1cc(C(N)=O)nc(-c2cccc(C#C[C@]3(O)CCN(C)C3=O)c2)c1 (10 µM)
inactive: BRAF_V600E 0 | BTK 0 | CAMK2A 0 | CAMK2G 0 | CDK10 = 0 | CDK2 = 0 | CDK3 = 0 | CDK4 = 0 | CDK5 = 0 | CDK6 = 0 | CDK7 = 0 | CDK9 = 0 | CHEK2 = 0 | CSF1R 0 | CSK 0 | CSNK1A1 = 0 | CSNK1D 0 | DDR1 = 0 | DYRK1B 0 | DYRK2 = 0

C=CC(=O)Nc1cc2c(Nc3ccc(OCc4ccccn4)c(Cl)c3)ncnc2cc1OCCN1CCOCC1 (10 µM)
inactive: BRAF_V600E 0 | BTK 0 | CAMK2A 0 | CAMK2G 0 | CDK10 = 0 | CDK2 = 0 | CDK3 = 0 | CDK4 = 0 | CDK5 = 0 | CDK6 = 0 | CDK9 = 0 | CHEK2 = 0 | CSF1R 0 | CSK 0 | CSNK1A1 = 0 | CSNK1D 0 | DYRK1B 0 | DYRK2 = 0
active: CDK7 = 1 | DDR1 = 1

O=C1Nc2nc(-c3c(O)cccc3OCC3CC3)cc([C@@H]3CCCNC3)c2CO1 [Bay 65-1942 (hydrochloride)] (10 µM)
inactive: BRAF_V600E 0 | BTK 0 | CAMK2A 0 | CAMK2G 0 | CDK10 = 0 | CDK2 = 0 | CDK3 = 0 | CDK4 = 0 | CDK5 = 0 | CDK6 = 0 | CDK7 = 0 | CDK9 = 0 | CHEK2 = 0 | CSF1R 0 | CSK 0 | CSNK1A1 = 0 | CSNK1D 0 | DDR1 = 0 | DYRK1B 0 | DYRK2 = 0

C[C@@]1(O)CCC[C@H]1n1c(=O)c(C(F)F)cc2cnc(NC3CCN(S(C)(=O)=O)CC3)nc21 (2.5 µM)
inactive: BRAF_V600E 0 | BTK 0 | CAMK2A 0 | CAMK2G 0 | CDK10 = 0 | CDK2 = 0 | CDK3 = 0 | CDK4 = 0 | CDK5 = 0 | CDK6 = 0 | CDK7 = 0 | CDK9 = 0 | CHEK2 = 0 | CSF1R 0 | CSK 0 | CSNK1A1 = 0 | CSNK1D 0 | DDR1 = 0 | DYRK1B 0 | DYRK2 = 0
